Source: paper PMC8357983
No constants are given. Whether binding was seen depends on the method and setting. In cells and extracts the contact can be indirect. Some results given as binding are weak or reduced against the parent protein; the word gives no strength. Each block holds one molecule with its values, some of them ahead of it.

By UniProt entry, the sequences of proteins in these tests, tags left out.
UniProt O75317: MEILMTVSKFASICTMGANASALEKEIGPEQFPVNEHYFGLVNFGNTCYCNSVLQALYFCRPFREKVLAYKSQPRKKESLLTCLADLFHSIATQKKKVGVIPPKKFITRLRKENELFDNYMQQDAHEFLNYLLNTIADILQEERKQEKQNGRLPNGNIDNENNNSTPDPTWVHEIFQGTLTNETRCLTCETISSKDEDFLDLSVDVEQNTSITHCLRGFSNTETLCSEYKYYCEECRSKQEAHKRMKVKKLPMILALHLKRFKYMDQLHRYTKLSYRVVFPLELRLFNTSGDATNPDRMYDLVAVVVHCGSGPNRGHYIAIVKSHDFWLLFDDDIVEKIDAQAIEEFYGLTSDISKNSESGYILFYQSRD
UniProt P62068: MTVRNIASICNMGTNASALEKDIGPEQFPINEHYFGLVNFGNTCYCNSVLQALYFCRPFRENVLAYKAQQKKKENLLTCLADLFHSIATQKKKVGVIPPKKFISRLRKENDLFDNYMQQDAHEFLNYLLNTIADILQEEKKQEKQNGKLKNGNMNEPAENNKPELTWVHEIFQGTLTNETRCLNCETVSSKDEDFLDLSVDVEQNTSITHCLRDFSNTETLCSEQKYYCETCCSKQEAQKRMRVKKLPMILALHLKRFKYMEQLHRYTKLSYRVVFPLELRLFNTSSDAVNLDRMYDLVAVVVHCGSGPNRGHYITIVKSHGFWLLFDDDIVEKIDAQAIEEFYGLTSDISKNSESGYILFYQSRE

How the values were obtained:
[1] = molecular target: T1, PPM1B (as used in the co-immunoprecipitation with USP46) (UniProt O75688); experiment: co-IP; USP46 with PPM1B (Supplementary Fig. 3f); cells, tags and antibodies not given
T1 sequence: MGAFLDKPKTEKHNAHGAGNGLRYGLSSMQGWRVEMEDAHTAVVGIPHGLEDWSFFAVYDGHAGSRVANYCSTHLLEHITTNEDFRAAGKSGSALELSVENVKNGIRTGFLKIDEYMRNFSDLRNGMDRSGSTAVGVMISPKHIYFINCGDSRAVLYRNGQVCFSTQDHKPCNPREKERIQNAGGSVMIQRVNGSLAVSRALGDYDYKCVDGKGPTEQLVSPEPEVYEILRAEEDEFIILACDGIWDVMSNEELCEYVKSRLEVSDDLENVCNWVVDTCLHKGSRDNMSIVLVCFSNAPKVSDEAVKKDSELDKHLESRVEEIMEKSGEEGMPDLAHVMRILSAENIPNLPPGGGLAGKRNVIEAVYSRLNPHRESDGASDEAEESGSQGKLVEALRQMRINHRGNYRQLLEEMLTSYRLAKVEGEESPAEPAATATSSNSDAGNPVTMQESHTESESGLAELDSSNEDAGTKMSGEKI

[2] = molecular target: 3×Flag-tagged human USP12 (human) (UniProt O75317); experiment: co-IP; lysates of cells with or without USP12-Flag (Western and IP lysis buffer) immunoprecipitated with antibody and Protein G-agarose overnight; endogenous PPM1B detected by immunoblotting

- binding [1]: binds
Molecule: 3×Flag-tagged human USP46 (from UniProt P62068 1-366) (enzyme)

- binding [2]: binds
B1: endogenous PPM1B (enzyme, UniProt O75688 1-479)
chain: T1 sequence
